{"source": "PubChem BioAssay AID2685", "about": "(National Center for Advancing Translational Sciences (NCATS), 2010)", "note": "In all, about 320,000 compounds went through this assay and about 2,100 (0.66%) were called active. Inconclusive results, whose numbers are uncertain, are shown with a selection of clear calls. Calls come from the whole dose curve; as a rule, active = well fitted inhibition curve with a large enough effect in the signal ratio, with a control signal flat (not every such curve was filed as active); inconclusive = small, poorly fitted or top-dose-only effect, or effect the other way, or a change in a side signal; inactive = flat fitted curve, though single readings scatter; the % refers to the signal ratio. Where the call is inconclusive, the potency comes from a doubtful curve fit. % is set by controls: 0 for no effect and ±100 for the full control effect; potency is the fitted concentration of half-maximal effect.", "data": [{"assay": "qHTS Assay for Lipid Storage Modulators in Drosophila S3 Cells", "conditions": "BODIPY lipid droplet fluorescence, 18-24 h, cells fed with added oleic acid; lipid storage change, negative = inhibition: at 46.1 µM (top of the series) unless noted", "outline": "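Drosophila S3 cells got compounds at several concentrations plus oleic acid (400 uM solution). Laser-scanning cytometry with 488 nm excitation read lipid droplets at 500-530 nm and cells at 575-640 nm. Percent activity was relative to 20 uM Triacsin C.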", "values": [{"smiles": "O=S(=O)(c1ccccc1F)N1CCN(Cc2cc3c(cc2Br)OCCO3)CC1", "Potency": "inconclusive: 0.092 µM [activator, partial curve, poor fit]"}, {"smiles": "CC(=O)c1cccc(NC(=O)CSc2nnnn2C2CCCC2)c1", "lipid storage change, negative = inhibition": "inconclusive: 60.5%"}, {"smiles": "CN(CCO)c1nc2c(c(=O)n(Cc3ccc(Cl)cc3)c(=O)n2C)n1C", "lipid storage change, negative = inhibition": "inconclusive: -56.5%"}, {"smiles": "Cc1cc(NC(=O)COc2ccc(Cl)cc2Cl)n(-c2ccccc2)n1", "Potency": "inconclusive: 29.1 µM [activator, single point]"}, {"smiles": "CCOC1=NN(c2ccc(Cl)cc2)C(=O)/C1=C\\N(C)C", "lipid storage change, negative = inhibition": "inconclusive: -2.65%"}, {"smiles": "O=C(Nc1cccc(NC(=O)C2CCCO2)c1)C1CCCO1", "note": "(configuration not stated)", "lipid storage change, negative = inhibition": "inconclusive: 2.65%"}, {"smiles": "COc1ccc(NC(=S)N2CCC(Cc3ccccc3)CC2)cc1OC", "lipid storage change, negative = inhibition": "inconclusive: -100%"}, {"smiles": "O=C(Nc1ccc(Cl)c(Cl)c1)OCc1cnc(Cl)s1", "lipid storage change, negative = inhibition": "inconclusive: -9.69%"}, {"smiles": "CSc1nc(Cc2ccc(Cl)cc2)nc2ccccc12", "Potency": "inconclusive: 0.58 µM [falling, partial curve]"}, {"smiles": "CC(Oc1ccc(Cl)cc1Cl)C(=O)Nc1ccncc1", "note": "(configuration not stated)", "lipid storage change, negative = inhibition": "inconclusive: -40.7%"}, {"smiles": "Nc1cc(C(F)(F)F)cc([N+](=O)[O-])c1N", "Potency": "inconclusive: 14.6 µM [activator, single point]"}, {"smiles": "COc1cc(NC(=O)NCCN2CCN(c3ccc(Cl)cc3)CC2)ccc1C", "lipid storage change, negative = inhibition": "inconclusive: -17.5%"}, {"smiles": "CCOc1ccc(S(=O)(=O)Nc2cccc(C)c2)c2cccnc12", "lipid storage change, negative = inhibition": "inconclusive: 0.709% [at 9.22 µM]"}, {"smiles": "O=C1/C(=C/c2ccccc2)SC(=S)N1CC(=O)N1CCCCC1c1cccnc1", "note": "(configuration not stated)", "lipid storage change, negative = inhibition": "inactive"}, {"smiles": "CC(=O)NC(Cc1ccccc1)C(=O)OCC(=O)c1ccc(F)cc1", "note": "(configuration not stated)", "lipid storage change, negative = inhibition": "inactive"}, {"smiles": "COc1cc2c(C(=O)NCCCN3CC(C)CC(C)C3)cn(CC(C)C)c(=O)c2cc1OC", "note": "(configuration not stated)", "Potency": "inconclusive: 5.8 µM [falling, full curve, poor fit]"}, {"smiles": "CCCc1cc(=O)[nH]c(SCC(=O)Nc2cccc3ccccc23)n1", "lipid storage change, negative = inhibition": "inconclusive: 99.2%"}, {"smiles": "Cc1nc(NC(=O)CSc2nnc(C3CC3)n2C)sc1C", "lipid storage change, negative = inhibition": "inconclusive: 187%"}, {"smiles": "CCOc1ccc(N2C(=O)/C(=C/c3cccs3)N(C)C2=S)cc1", "lipid storage change, negative = inhibition": "inconclusive: -4.02%"}, {"smiles": "CCOc1cc(NC(=S)NCCCN2CCOCC2)c(OCC)cc1NC(=O)c1ccco1", "lipid storage change, negative = inhibition": "inconclusive: 180%"}, {"smiles": "O=C(CSc1nnc(NC2CC2)s1)Nc1ccc(N2CCOCC2)cc1", "lipid storage change, negative = inhibition": "inconclusive: 17.6%"}, {"smiles": "Cc1c(C(=O)N(C)c2cccc(Cl)c2)cnn1-c1ccccc1", "lipid storage change, negative = inhibition": "inconclusive: 12.7%"}, {"smiles": "CCCCCCSc1ccc([C@H]2N[C@@](CC(C)C)(C(=O)OC)[C@H]3C(=O)N(CC)C(=O)[C@@H]23)cc1", "lipid storage change, negative = inhibition": "inconclusive: 19.4%"}, {"smiles": "CSc1nc(N)n2nc(-c3ccccc3)cc2n1", "lipid storage change, negative = inhibition": "inconclusive: 7.8%"}, {"smiles": "Cc1cc(C(=O)OCC(=O)NC2CCC(C)CC2)c(C)o1", "note": "(configuration not stated)", "lipid storage change, negative = inhibition": "inactive"}, {"smiles": "CCC(N1CCOC1=O)S(=O)(=O)c1ccc(C)cc1", "note": "(configuration not stated)", "Potency": "active: 25.9 µM"}, {"smiles": "CC(=O)C(/C=N/c1cc(-c2ccc(C)cc2)nn1-c1ccccc1)=C(\\C)O", "lipid storage change, negative = inhibition": "inconclusive: 10%"}, {"smiles": "NC(=O)COc1ccc(/C=N/NS(=O)(=O)c2ccccc2)cc1", "lipid storage change, negative = inhibition": "inconclusive: -14.1%"}, {"smiles": "Cc1cc(=O)[nH]c(SCC2(O)C3CC4CC(C3)CC2C4)n1", "note": "(configuration not stated)", "Potency": "active: 29.1 µM"}, {"smiles": "O=C(CNC(=O)c1ccco1)OCC(=O)c1ccc2c(c1)CCCC2", "lipid storage change, negative = inhibition": "inconclusive: 1.23%"}, {"smiles": "CCC1(CC)C(=O)N(C)C(=O)NC1=Nc1ccccc1", "lipid storage change, negative = inhibition": "inconclusive: -4.85%"}, {"smiles": "C/C(CC(=O)Nc1ccc2ccccc2c1)=N\\NC(=O)c1ccc(O)c(O)c1", "Potency": "inconclusive: 29.1 µM [falling, single point]"}, {"smiles": "O=C(C(Cl)Cl)N1c2ccccc2OCC1c1ccccc1", "note": "(configuration not stated)", "Potency": "inconclusive: 16.4 µM [falling, single point]"}, {"smiles": "CN1CCN(S(=O)(=O)c2ccc(Oc3ccc(F)c(Cl)c3)nc2)CC1", "Potency": "inconclusive: 0.92 µM [falling, single point]"}, {"smiles": "Nc1nnc(SCC(=O)N2CCN(c3ccccc3)CC2)s1", "lipid storage change, negative = inhibition": "inconclusive: 59.5%"}, {"smiles": "CCn1cc(CN2N=C(C)CC2c2ccccc2)c(C)n1", "note": "(configuration not stated)", "lipid storage change, negative = inhibition": "inconclusive: 2.94%"}, {"smiles": "O=C(NCc1ccc2c(c1)OCO2)c1ccncc1", "Potency": "inconclusive: 29.1 µM [activator, single point]"}, {"smiles": "COC(=O)c1c(NC(=O)CSc2nnnn2-c2ccccc2)sc2c1CCCC2", "lipid storage change, negative = inhibition": "inconclusive: 31.1%"}, {"smiles": "O=C(NCC(=O)N1CCN(c2ccccc2O)CC1)c1cccs1", "lipid storage change, negative = inhibition": "inconclusive"}, {"smiles": "CCOC(=O)C1CCCN(C(=O)CCc2nc3sc4c(c3c(=O)[nH]2)CCCC4)C1", "note": "(configuration not stated)", "lipid storage change, negative = inhibition": "inconclusive: 20.9%"}, {"smiles": "COc1cc2nc(C3CCC3)n(NC(=O)C3CCCC(OC)C3)c(=O)c2cc1OC", "note": "(configuration not stated)", "lipid storage change, negative = inhibition": "inconclusive: 47.6%"}, {"smiles": "CCC(C)NC(=O)CCc1nnc2ccc(N3CCC(C)CC3)nn12", "note": "(configuration not stated)", "lipid storage change, negative = inhibition": "inconclusive: -31.8%"}, {"smiles": "CC1CN(C(=O)c2ccc(S(=O)(=O)Nc3ccccc3F)cc2)CC(C)O1", "note": "(configuration not stated)", "lipid storage change, negative = inhibition": "inconclusive"}, {"smiles": "O=C(COC(=O)/C=C/c1ccc(OC(F)F)cc1)NC1CCCC1", "Potency": "inconclusive: 0.259 µM [falling, full curve, poor fit]"}, {"smiles": "Nc1ccc(/C=C/c2ccc3ncccc3c2)cc1", "lipid storage change, negative = inhibition": "inconclusive: 23.8%"}, {"smiles": "NS(=O)(=O)c1ccc(NC(=O)CN2CCc3ccccc32)cc1", "lipid storage change, negative = inhibition": "inconclusive: 7.34%"}, {"smiles": "O=C(c1cc(-c2ccc(Cl)cc2)on1)N1CCc2ccccc2C1", "Potency": "inconclusive: 0.651 µM [falling, partial curve, poor fit]"}, {"smiles": "Cc1ccc(C(=O)Nc2ccc(OCc3ccccc3)cc2)cc1[N+](=O)[O-]", "lipid storage change, negative = inhibition": "inconclusive: -2.75%"}, {"smiles": "COc1ccc(N(CC(=O)NC2CCCCCC2)S(=O)(=O)c2ccccc2)cc1Cl", "Potency": "inconclusive: 20.6 µM [falling, single point]"}, {"smiles": "c1ccc(-n2nnnc2SCCCSc2nc3ccccc3s2)cc1", "lipid storage change, negative = inhibition": "inconclusive: 70.5%"}, {"smiles": "Cc1ccc(SCc2nn(C)c(Cl)c2C=O)cc1", "lipid storage change, negative = inhibition": "inconclusive: -25.8%"}, {"smiles": "O=C(N/N=C/c1ccc(OC(F)F)cc1)c1ccc(CSc2nc3ccccc3[nH]2)cc1", "Potency": "inconclusive: 16.4 µM [activator, single point]"}]}]}
